This note sets out measurements from publication PMC5458466, “DNA‐induced unfolding of the thyroid hormone receptor α A/B domain through allostery”.

No constants are given. Whether binding was seen depends on the method and setting.

Test [1] addresses TRα (DBD), chicken thyroid hormone receptor α1, amino acids 37–154 (chicken) (UniProt P04625). The test can be described thus: SEC; size-exclusion chromatography on S200 Superdex 16/60 in 50 mM HEPES pH 7.5, 125 mM NaCl, 5 mM MgCl2, 1 mM TCEP; protein analysed by SDS/PAGE; both purified. On the technique in general: In gel filtration, larger molecules generally elute earlier.
The target of test [2] is TRα (A/B + DBD), chicken thyroid hormone receptor α1, amino acids 1–154 (chicken) (UniProt P04625). The test is described as above.

B1: TRα (DBD), chicken thyroid hormone receptor α1, amino acids 37–154 (domain or fragment, UniProt P04625 37-154)
chain: MSGYIPSYLDKDEQCVVCGDKATGYHYRCITCEGCKGFFRRTIQKNLHPTYSCKYDGCCVIDKITRNQCQLCRFKKCISVGMAMDLVLDDSKRVAKRKLIEENRERRRKEEMIKSLQH
B1: in test [1], the binding result is reported as “no binding”.

B2: TRα (A/B + DBD), chicken thyroid hormone receptor α1, amino acids 1–154 (domain or fragment, UniProt P04625 1-154)
chain: MEQKPSTLDPLSEPEDTRWLDGKRKRKSSQCLVKSSMSGYIPSYLDKDEQCVVCGDKATGYHYRCITCEGCKGFFRRTIQKNLHPTYSCKYDGCCVIDKITRNQCQLCRFKKCISVGMAMDLVLDDSKRVAKRKLIEENRERRRKEEMIKSLQH
As to B2, the binding entry in test [2] is on record as “no binding”.
